Measurements taken from patent US20070244056A1 (priority 2004, published 2007).

What was measured:
[1] = system: retinal ganglion cell (RGC) death induced by glutamate; details: given prior to glutamate (0.2 M) injection; RGCs counted 7 days after glutamate injection
[2] = system: MPTP-induced dopaminergic neurotoxicity (nigrostriatal dopaminergic neurons); details: given before MPTP (25 mg/kg i.p., 4 injections); GA 100 μg/mouse s.c. 7 days before, riluzole 10 mg/kg by gavage 30 minutes before each MPTP injection; 7 days after first MPTP
[3] = system: human patients afflicted with an unspecified form of multiple sclerosis; details: administered alone; data of WO 00/74676; cited from earlier work

In the case of Nc1nc2ccc(OC(F)(F)F)cc2s1 [riluzole, 2-amino-6-trifluoromethoxy benzothiazole], the “number of surviving RGCs” value [1] is given as “raises the number of surviving RGCs above that of the control group”, the striatal dopamine levels [2] is given as “increases the striatal dopamine levels” and the “increase in T2 lesion load in the brain” value [3] is given as “did not alter much under treatment”.
